Results as given in PubChem BioAssay AID485314 (National Center for Advancing Translational Sciences (NCATS), 2010).
Screen size: about 340,000 compounds; about 4,500 (1.3%) were called active. The inconclusive results got no clear call from the source; some entries with a clear call stand among them for comparison. Calls come from the whole dose curve; as a rule, active = well fitted inhibition curve with a large enough effect; inconclusive = small, poorly fitted or top-dose-only effect, or another doubt; inactive = no such curve, though single readings can be large or run the other way. Potencies of inconclusive entries are doubtful fits and often do not repeat.

target: DNA polymerase beta (Homo sapiens) (UniProt P06746); assay: qHTS Assay for Inhibitors of DNA Polymerase Beta; settings: Pol beta primer extension/strand displacement, fluorescence kinetic; activity change, negative = inhibition: at 114 µM (top of the series)
Summary of the method: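 Values derive from four-parameter Hill fits of normalized kinetic data: reads at 0 and 10 min following addition of 50 nM substrate to 10 nM Pol beta preincubated 15 min with compound.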
% is set by controls: 0 for no effect and ±100 for the full control effect; potency is the fitted concentration of half-maximal effect.

| Compound | Potency | activity change, negative = inhibition |
| --- | --- | --- |
| Cc1ccc(NC(=O)NC2(C(=O)NCc3ccco3)CCCCC2)cc1 | inconclusive: 0.282 µM [inhibitor, full curve] | – |
| Cc1ccc(OCC(=O)N(Cc2cccs2)C2CCS(=O)(=O)C2)cc1C (stereo not given) | inconclusive: 0.158 µM [inhibitor, full curve] | – |
| Cc1ccc(NS(=O)(=O)c2c(C)[nH]c(C)c2C(=O)N2CCCCC2)cc1Cl | – | inactive: -8.05% |
| C/C(=N\O)c1ccc2c(c1)OCCO2 | inconclusive: 100 µM [inhibitor, single point] | – |
| Cc1ccc(C)c2sc(NC(=O)c3ccc(S(=O)(=O)N4CCCC4)cc3)nc12 | – | inactive: -5.4% |
| CC(=O)N1CCOc2cc(S(=O)(=O)NCc3ccc(C)cc3)c(C)cc21 | – | inactive: 11.2% |
| CCCn1cc(S(=O)(=O)CC(=O)Nc2ccc(OCC)cc2)c2ccccc21 | active: 89.1 µM | – |
| CC(=O)c1ccc(N2CCN(C(=O)CCS(=O)(=O)c3ccc4c(c3)NC(=O)CS4)CC2)cc1 | inconclusive: 20 µM [inhibitor, full curve, poor fit] | – |
| O=C(NC(C(=O)c1ccccc1)n1c(=O)cc[nH]c1=S)c1ccccc1 (stereo not given) | inconclusive: 89.1 µM [inhibitor, single point] | – |
| CCCCN(C(=O)CNC(=O)c1ccco1)C(C(=O)NC1CCCCC1)c1cccnc1 (stereo not given) | – | inactive: 81.3% |
| CCN1CCN(CCNC(=O)c2cc(Cl)c(NC(=O)C3=C(C)OCCS3)cc2OC)CC1 | – | inactive: -0.176% |
| COc1ccc(S(=O)(=O)NCCSCc2ccco2)cc1Cl | inconclusive: 39.8 µM [inhibitor, partial curve] | – |
| O=C(CSc1nc2ccccc2s1)N/N=C/c1ccccc1C(=O)O | inconclusive: 79.4 µM [inhibitor, single point] | – |
| O=C(CN1C(=O)C(=O)c2ccccc21)NCCc1ccccc1 | inconclusive: 31.6 µM [inhibitor, partial curve] | – |
| O=C(CNc1ccc2ccccc2c1)N/N=C/C=C/c1cccc([N+](=O)[O-])c1 | inconclusive: 44.7 µM [inhibitor, single point] | – |
| CCCc1cc(=O)oc2c(CN3CCN(C)CC3)c(O)ccc12 | inconclusive: 28.2 µM [inhibitor, full curve, poor fit] | – |
| CCCCc1nc2cc(C(=O)N(C)C(C)c3ccccn3)ccc2o1 (stereo not given) | – | inactive: 21.7% |
| Cc1ccc2nc(-c3cccc(NC(=O)CSc4ccc(Cl)cc4)c3)oc2c1 | – | inactive: 10.6% |
| CC(C)c1nnc(NC(=O)C2CC(=O)N(CCc3ccc(F)cc3)C2)s1 (stereo not given) | inconclusive: 11.2 µM [inhibitor, full curve] | – |
| O=C(O)c1ccc(COc2ccccc2/C=C2\NC(=O)N(Cc3ccccc3F)C2=O)cc1 | inconclusive: 89.1 µM [inhibitor, single point] | – |
| Cc1nn(-c2ccc3ccccc3c2)c(=O)c2ccccc12 | – | inactive: -0.46% |
| O=C(O)C1Nc2c(Cl)cc(Cl)cc2C2C=CCC12 (stereo not given) | inconclusive: 4.47 µM [inhibitor, full curve, poor fit] | – |
| CC1CCN(S(=O)(=O)c2ccc(NC(=O)Cc3cccs3)cc2)CC1 | active: 14.1 µM | – |
| CCn1ccc2cc(S(=O)(=O)N3CCC(C(=O)NCC(C)c4ccccc4)CC3)ccc21 (stereo not given) | – | inactive: -2.03% |

| Compound | Potency | activity change, negative = inhibition |
| --- | --- | --- |
| COc1cc(OC)cc(C(=O)NN(CCC#N)C2=NS(=O)(=O)c3ccccc32)c1 | – | inactive: 0.868% |
| COc1ccc(CNC(=O)c2csc(Cc3ccc(OC)cc3)n2)cc1 | inconclusive: 8.91 µM [inhibitor, full curve] | – |
| O=C(COC(=O)c1cc(-c2ccccc2Cl)nc2ccccc12)Nc1ncc(C(F)(F)F)cc1Cl | active: 31.6 µM | – |
| O=C(Nc1cccc([N+](=O)[O-])c1)Nc1cccs1 | inconclusive: 31.6 µM [inhibitor, single point] | – |
| CCOC(=O)c1cc(-c2ccccc2)n(CCCC(=O)Nc2cccc(C)c2)c1C | – | inactive: -13.2% |
| Cn1c(NN)nc2sc3c(c2c1=O)CCC3 | active: 89.1 µM | – |
| CC(C)(C)c1ccc(S(=O)(=O)c2cnc(SCC(=O)Nc3ccc4c(c3)OCCO4)[nH]c2=O)cc1 | inconclusive: 89.1 µM [inhibitor, single point] | – |
| COc1cc(OC)cc(C(=O)NC(C)CNc2ccc(Cl)cc2[N+](=O)[O-])c1 (stereo not given) | inconclusive: 31.6 µM [inhibitor, single point] | – |
| COc1cccc(-c2nnc(SCc3nc4ccccc4[nH]3)n2N)c1 | inconclusive: 25.1 µM [inhibitor, full curve] | – |
| Cc1ccc(-n2c(SCC(=O)Nc3cccc(S(N)(=O)=O)c3)nc3ccccc32)cc1 | inconclusive: 25.1 µM [inhibitor, single point] | – |
| Cc1ccc(-c2nnc(SCC(=O)NC(C)(C)C)nc2-c2ccc(C)cc2)cc1 | inconclusive: 89.1 µM [inhibitor, single point] | – |
| COc1ccc2nc(SCC(=O)NC3CCCc4ccccc43)[nH]c2c1 (stereo not given) | inconclusive: 39.8 µM [inhibitor, single point] | – |
| COc1cc(C(=O)Oc2ccc(C(=S)N3CCOCC3)cc2)cc(OC)c1OC | inconclusive: 0.562 µM [inhibitor, full curve, poor fit] | – |
| Cc1nnsc1-c1c(C(=O)Oc2ccccc2)c(C)nn1-c1ccccc1 | inconclusive: 8.91 µM [inhibitor, partial curve] | – |
| Cc1ccc(CN2CCN(/N=C/C(Br)=C\c3ccccc3)CC2)cc1 | inconclusive: 100 µM [inhibitor, single point] | – |
| Nc1ccc2c(c1)C/C(=C/c1ccco1)C2=O | active: 5.62 µM | – |
| COc1ccc(OC)c(/C(C)=N/Nc2ccc(C(=O)O)cc2)c1 | inconclusive: 8.91 µM [inhibitor, partial curve] | – |
| Oc1c(Br)cc(Br)c(/C=N/n2c(-c3ccccc3)n[nH]c2=S)c1Br | inconclusive: 10 µM [inhibitor, partial curve, poor fit] | – |
| O=C1c2cccc3c([N+](=O)[O-])ccc(c23)C(=O)N1O | – | inconclusive: -108% [inhibitor] |
| CCOC(=O)c1csc(COc2ccc(OC)cc2)n1 | – | inactive: -0.0421% |
| NC(=O)c1c(NC(=O)CN2CCCC2)sc2c1CCCC2 | – | inactive: -16.8% |
| N/C(=N\OC(=O)Cc1cccs1)c1ccc([N+](=O)[O-])cc1 | inconclusive: 31.6 µM [inhibitor, partial curve] | – |

| Compound | Potency | activity change, negative = inhibition |
| --- | --- | --- |
| FC(F)(F)c1nc2cc3nc4ccccc4[nH]c3cc2n1 | inconclusive: 79.4 µM [inhibitor, partial curve, poor fit] | – |
| Cc1ccc(S(=O)(=O)C2(C(=O)N3CCCCC3C)CC2)cc1 (stereo not given) | inconclusive: 5.62 µM [inhibitor, full curve] | – |
| CS(=O)(=O)N1CCN(C(=O)C(Sc2ccccc2)c2ccccc2)CC1 (stereo not given) | inconclusive: 25.1 µM [inhibitor, partial curve] | – |
| COc1ccc(NC(=O)Cn2c(=O)n(CCCCCC(=O)NCc3ccc4c(c3)OCO4)c(=O)c3sccc32)cc1Cl | – | inactive: -24.9% |
| CC1(C)Cc2c(sc3nc(SCC(=O)NCc4ccco4)n(-c4ccccc4)c(=O)c23)CS1 | inconclusive: 10 µM [inhibitor, full curve, poor fit] | – |
| Cc1cc(C)c(S(=O)(=O)NCCn2c(C)cc3ccccc32)c(C)c1 | inconclusive: 12.6 µM [inhibitor, partial curve, poor fit] | – |
| Cn1c(=O)c2c(nc(NCCOc3ccc(F)cc3)n2C)n(C)c1=O | inconclusive: 0.708 µM [inhibitor, full curve, poor fit] | – |
| CCc1nnc(SCc2cccc(Cl)c2)c2cc3sccc3n12 | – | inactive: -6.07% |
| COc1cccc(/C=N/Nc2ccccc2C(=O)O)c1O | – | inactive: -0.858% |
| COc1ccc(-c2cc(OC(=O)c3ccccc3Cl)c3c(C)oc(C)c3c(=O)c2)cc1OC | – | inactive: 5.06% |
| Cc1nnc(N/N=C/c2ccccc2O)n1N | – | inactive: -0.126% |
| O=C(NC(Cc1ccccc1)C(=O)O)/C(=C\c1ccco1)NC(=O)c1ccco1 (stereo not given) | inconclusive: 56.2 µM [inhibitor, partial curve, poor fit] | – |
| CCN1CCN(Cc2cc(=O)oc3ccc(Cl)cc23)CC1 | inconclusive: 0.1 µM [inhibitor, full curve] | – |
| Cc1ccnc(NS(=O)(=O)c2ccc(NC(=O)Cc3cccs3)cc2)n1 | active: 20 µM | – |
| O=C(COc1ccccc1Cl)Nc1cc(NC(=O)COc2ccccc2Cl)cc(C(=O)O)c1 | active: 79.4 µM | – |
| CCc1ccc(NC(=O)CSc2nnc(Cn3c(=O)sc4ccccc43)n2C)cc1 | inconclusive: 89.1 µM [inhibitor, single point] | – |
| O=C(Cn1cc(SCc2cccc(Cl)c2)c2ccccc21)N1CCCCC1 | inconclusive: 100 µM [inhibitor, single point] | – |
| CN(C)S(=O)(=O)c1cccc(NC(=O)COC(=O)c2cc(-c3cccc(Br)c3)nc3ccccc23)c1 | inconclusive: 100 µM [inhibitor, single point] | – |
| CCOc1ccc(S(=O)(=O)N2CCN(c3ccc(C)cc3C)CC2)cc1 | inconclusive: 89.1 µM [inhibitor, single point] | – |
| COc1ccc(-c2csc3nc(C)n(-n4cccc4)c(=O)c23)cc1 | – | inactive: -3.81% |
| Cc1cc([N+](=O)[O-])ccc1NC(=O)CSc1nnc(C)n1C | inconclusive: 1.78 µM [inhibitor, full curve, poor fit] | – |
| Cc1cc(C)c(OCCCNC2CCCC2)c(Br)c1 | inconclusive: 0.398 µM [inhibitor, full curve, poor fit] | – |
